Measured values from PubChem BioAssay AID212 (DTP/NCI, 2004).
The list shows only some results of the screen, not a fair sample: it gathers tests that were run many times, whatever their T/C, doses with no T/C, and many T/C values between a quarter and a half above the control. Other doses and runs of a compound stand elsewhere. T/C gives the treated animals as a percentage of the vehicle group. Schedule codes are those of the source, taken here to give the interval after Q, in days (D) or hours (H), and the number of doses after X. Some T/C values are followed by the survivors on the day toxicity was checked, most often the fifth; without a count, all were alive then. Some doses have a count of surviving animals in place of a T/C: the source holds a T/C of zero for them, seemingly a mark for toxic or unscored doses. Survivors were counted at the toxicity check, usually on the fifth day, unless a day is given; later deaths do not show. Some entries hold several experiments; their values stand side by side, smallest first. Where a SMILES comes first, the peptide text is derived from it. Bridges are numbered along the chain shown (N, C = ends). Roman numbers before positions name the chains, in order. [ ]: non-standard residue; d: D form. The star is where a group is joined. Quinoxaline2carbonyl = O=C(c1cnc2ccccc2n1)*; NMeV = CN[CH](C(=O)O)C(C)C; NMeC = CN[CH](CS)C(=O)O

Test system: BDF1 mice, colon carcinoma 38 sc, T/C %
Assay: NCI In Vivo Anticancer Drug Screen. Data for tumor model Colon Carcinoma 38 (subcutaneous) in B6D2F1 (BDF1) mice
Settings: T/C endpoint: median tumor weight (est.), higher T/C = larger tumour; for T/C: evaluated on day 20
Outline: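 Mice with transplanted tumors are treated with compound or vehicle. Survival or tumor size is then measured in both groups. The ratio of treated to control gives the reported figure.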

[1] = dose: 25.0 mg/kg/injection, schedule: Q07DX002 (ip), vehicle: Klucel (hydroxypropylcellulose) (HPC)
[2] = dose: 400.0 mg/kg/injection, schedule: Q07DX002 (ip), vehicle: Klucel (hydroxypropylcellulose) (HPC)
[3] = dose: 200.0 mg/kg/injection, schedule: Q07DX002 (ip), vehicle: Klucel (hydroxypropylcellulose) (HPC)
[4] = dose: 50.0 mg/kg/injection, schedule: Q07DX002 (ip), vehicle: Klucel (hydroxypropylcellulose) (HPC)
[5] = dose: 100.0 mg/kg/injection, schedule: Q07DX002 (ip), vehicle: saline with Tween-80
[6] = dose: 200.0 mg/kg/injection, schedule: Q07DX002 (ip), vehicle: saline with Tween-80
[7] = dose: 50.0 mg/kg/injection, schedule: Q07DX002 (ip), vehicle: saline with Tween-80
[8] = dose: 400.0 mg/kg/injection, schedule: Q07DX002 (ip), vehicle: saline with Tween-80
[9] = dose: 100.0 mg/kg/injection, schedule: Q07DX002 (ip), vehicle: Klucel (hydroxypropylcellulose) (HPC)

SMILES: C1CCC2[N-]CC3CCCCC3[N-]CC3CCCCC3[N-]CC3CCCCC3[N-]CC2C1.[Cu] (stereo not drawn)
- T/C (dose: 3.12 mg/kg/injection, schedule: Q07DX003 (ip), vehicle: Klucel (hydroxypropylcellulose) (HPC)): 125 % of control
- survivor count [1]: 1 of 10 on day 20

SMILES: Nc1nc2c(ncn2C2OC(CO)C(O)C2O)c(=O)[nH]1.Nc1nc2c(ncn2C2OC(CO)C(O)C2O)c(=O)[nH]1.[NH2-].[NH2-].[Pt+2] (stereo not drawn)
- T/C (dose: 400.0 mg/kg/injection, schedule: Q07DX002 (ip), vehicle: water): 128 % of control [9 of 10 alive]

SMILES: CC1CN=C(c2ccc(NC(=O)c3ccc(C(=O)Nc4ccc(C5=NCC(C)N5)cc4)cc3)cc2)N1 (stereo not drawn)
- T/C (dose: 200.0 mg/kg/injection, schedule: Q07DX003 (ip), vehicle: Klucel (hydroxypropylcellulose) (HPC)): 126 % of control

SMILES: CN(C)CCCOC(=O)Cc1cccc2c(=O)cc(-c3ccccc3)oc12
- survivor count [2]: 0 of 10 on day 20

SMILES: Cc1cc(NCCN(C(C)C)C(C)C)nc(/N=C(\N)Nc2ccc(Cl)c(C(F)(F)F)c2)n1
- T/C (dose: 5.0 mg/kg/injection, schedule: Q07DX002 (ip), vehicle: Klucel (hydroxypropylcellulose) (HPC)): 130 % of control
- survivor count (dose: 80.0 mg/kg/injection, schedule: Q07DX002 (ip), vehicle: Klucel (hydroxypropylcellulose) (HPC)): 1 of 10 on day 20

SMILES: Cn1c(N)c(C(=O)/C=C/c2ccccc2)c(=O)n(C)c1=O
- T/C (dose: 12.5 mg/kg/injection, schedule: Q07DX002 (ip), vehicle: Klucel (hydroxypropylcellulose) (HPC)): 125 % of control [9 of 10 alive]
- T/C [3]: 127 % of control

SMILES: O=C1N(CC2CO2)CCN1CC1CO1 (stereo not drawn)
- survivor count (dose: 800.0 mg/kg/injection, schedule: Q07DX002 (ip), vehicle: saline): 1 of 10 on day 20

SMILES: C=CS(C=C)=NS(=O)(=O)c1ccc(C)cc1
- T/C (dose: 3.12 mg/kg/injection, schedule: Q07DX002 (ip), vehicle: Klucel (hydroxypropylcellulose) (HPC)): 126 % of control

SMILES: CS(C)=O
- T/C (dose: 1.5 grams/kg/injection, schedule: Q07DX003 (ip), vehicle: saline): 129 % of control

SMILES: NC(=S)N/N=C\c1ncccc1OCc1cccc(N)c1
- survivor count (dose: 800.0 mg/kg/injection, schedule: Q07DX002 (ip), vehicle: distilled water + Tween-80): 3 of 10 on day 20

SMILES: O=C(NO)c1ccc(O)c(O)c1
- survivor count (dose: 800.0 mg/kg/injection, schedule: Q07DX002 (ip), vehicle: water): 1 of 10 on day 20
- survivor count (dose: 1600.0 mg/kg/injection, schedule: Q07DX002 (ip), vehicle: water): 0 of 10 on day 20

SMILES: Cn1cnc([N+](=O)[O-])c1S(=O)(=O)NCN1CCOCC1
- survivor count [2]: 1 of 10 on day 20
- survivor count (dose: 800.0 mg/kg/injection, schedule: Q07DX002 (ip), vehicle: Klucel (hydroxypropylcellulose) (HPC)): 0 of 10 on day 20

SMILES: CC1C=NNC1=O (stereo not drawn)
- T/C [4]: 148 % of control
- T/C [2]: 141 % of control

SMILES: C=C1C(=O)O[C@H]2/C=C(/C)C3=CC(=O)[C@@](C)(C[C@@H](OC(=O)/C(C)=C\C)C12)O3 (stereo partly drawn)
- survivor count [4]: 2 of 10 on day 20

SMILES: O=C(Nc1ccc(C2=NCCN2)cc1)c1ccc(C(=O)Nc2ccc(C3=NCCN3)cc2)c(Cl)c1
- T/C (dose: 3.12 mg/kg/injection, schedule: Q07DX002 (ip), vehicle: saline with Tween-80): 126 % of control
- T/C (dose: 25.0 mg/kg/injection, schedule: Q07DX002 (ip), vehicle: saline with Tween-80): 129 % of control
- survivor count [5]: 1 of 10 on day 20

SMILES: CCC[CH2][Hg][Cl]
- T/C (dose: 1.25 mg/kg/injection, schedule: Q07DX002 (ip), vehicle: Klucel (hydroxypropylcellulose) (HPC)): 134 % of control
- T/C (dose: 10.0 mg/kg/injection, schedule: Q07DX002 (ip), vehicle: Klucel (hydroxypropylcellulose) (HPC)): 125 % of control [9 of 10 alive on day 20]

SMILES: CCN(CC)C(C)(C)C(=O)/C=C/c1ccccc1
- survivor count (dose: 500.0 mg/kg/injection, schedule: Q07DX002 (ip), vehicle: saline with Tween-80): 1 of 10 on day 20

SMILES: CCCCNc1ccc2nnc(C)n2n1
- survivor count (dose: 400.0 mg/kg/injection, schedule: Q07DX002 (ip), vehicle: other): 5 of 10 on day 20 and 6 of 10 on day 20
- survivor count (dose: 800.0 mg/kg/injection, schedule: Q07DX002 (ip), vehicle: other): 0 of 10 on day 20

SMILES: CNC(=O)n1c(N)nc(-c2ccccc2)c1-c1ccccc1
- survivor count [6]: 4 of 10 on day 20

SMILES: CC1(C)CC1(Br)Br
- T/C (dose: 12.5 mg/kg/injection, schedule: Q07DX002 (ip), vehicle: saline with Tween-80): 125 % of control
- T/C [7]: 147 % of control
- T/C [6]: 134 % of control
- survivor count [8]: 5 of 10 on day 20

SMILES: CC1NC(=O)C(NC(=O)c2cnc3ccccc3n2)COC(=O)C(C(C)C)N(C)C(=O)C2CSSCC(C(=O)N(C)C(C(C)C)C(=O)OCC(NC(=O)c3cnc4ccccc4n3)C(=O)NC(C)C(=O)N2C)N(C)C1=O (stereo not drawn) (I: Quinoxaline2carbonyl-SA[NMeC][NMeV] / II: Quinoxaline2carbonyl-SA[NMeC][NMeV]; ester I:1-II:C, I:C-II:1; disulfide I:3-II:3; configuration not given here)
- survivor count (dose: 400.0 micrograms/kg/injection, schedule: Q07DX002 (ip), vehicle: Klucel (hydroxypropylcellulose) (HPC)): 3 of 10 on day 20
- survivor count (dose: 800.0 micrograms/kg/injection, schedule: Q07DX002 (ip), vehicle: Klucel (hydroxypropylcellulose) (HPC)): 1 of 10 on day 20

SMILES: CNNCc1ccc(C(=O)NC(C)C)cc1
- T/C (dose: 25.0 mg/kg/injection, schedule: Q07DX003 (ip), vehicle: saline): 148 % of control

SMILES: CC(=O)OCC1OC(OC2=C(CC=C(C)C)C(=O)c3ccccc3C2=O)C(OC(C)=O)C(OC(C)=O)C1OC(C)=O (stereo not drawn)
- T/C [1]: 129 % of control [9 of 10 alive]
- T/C [9]: 132 % of control

SMILES: O=c1[nH]c(=O)n([C@H]2CCCO2)cc1F
- T/C (dose: 20.0 mg/kg/injection, schedule: Q07DX003 (ip), vehicle: Klucel (hydroxypropylcellulose) (HPC)): 130 % of control
- survivor count (dose: 640.0 mg/kg/injection, schedule: Q07DX003 (ip), vehicle: Klucel (hydroxypropylcellulose) (HPC)): 4 of 10

SMILES: C=C[Si]12OCCN(CCO1)CCO2
- T/C [9]: 130 % of control

SMILES: CCN(CC)c1ccc2cc(-c3nc4ccccc4n3C)c(=O)oc2c1
- survivor count [3]: 0 of 10 on day 20
- survivor count [2]: 1 of 10 on day 20

SMILES: CCCCc1ccc2nc(NC(=O)OC)[nH]c2c1
- T/C [5]: 126 % of control
- survivor count [8]: 6 of 10 on day 20

SMILES: CC1=C(/C=C/C(C)=C/C=C/C(C)=C/C=O)C(C)(C)CCC1
- T/C [7]: 125 % of control [9 of 10 alive on day 20]
- survivor count [6]: 2 of 10 on day 20
- survivor count [8]: 1 of 10 on day 20
